PubChem BioAssay AID2685 (National Center for Advancing Translational Sciences (NCATS), 2010)
This is one part of the list. The main result of the screen is listed elsewhere. These columns were measured beside it and carry no call. Compounds called inactive in the main read-out are mostly missing here. Potencies come from curve fits of mixed quality, noted in brackets.

Test: qHTS Assay for Lipid Storage Modulators in Drosophila S3 Cells;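 for cell number change: cells counted by Cell Tracker Red CMTPX staining in the red channel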
Conditions: BODIPY lipid droplet fluorescence, 18-24 h; for cell number change: measured here: cell count max response, cells fed with added oleic acid
In short: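 Drosophila S3 cells got compounds at several concentrations plus oleic acid (400 uM solution). Laser-scanning cytometry with 488 nm excitation read lipid droplets at 500-530 nm and cells at 575-640 nm. Percent activity was relative to 20 uM Triacsin C.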

[1] = measured here: cell number channel AC50, cells fed with added oleic acid
[2] = measured here: lipid fluorescence (Fed channel) AC50, cells fed with added oleic acid

| SMILES | cell number change [%] | AC50 [1] | AC50 [2] |
| --- | --- | --- | --- |
| Cc1ccc2cccc(S(=O)(=O)NC3CCS(=O)(=O)C3)c2n1 (stereo not given) | 6.56 |  |  |
| COc1ccccc1CCC(=O)Nc1ccc(S(=O)(=O)Nc2nccs2)cc1 | -14.9 | 0.0731 µM [falling, full curve, poor fit] |  |
| CCOc1ccc(N(CC(=O)NC2CCCC2)C(=O)CSc2nnc(COc3ccccc3)o2)cc1 | 148 | 9.2 µM [rising, partial curve] | 9.2 µM [rising, partial curve] |
| Cc1cc(C(=O)CCC(=O)N2CCN(S(=O)(=O)c3ccccc3)CC2)c(C)s1 |  | 4.61 µM [falling, partial curve, poor fit] |  |
| CCOC(=O)c1ccc(NC(=O)CSc2ccc(-c3ccccn3)nn2)cc1 | 11.8 |  |  |
| CCOc1ccc2[nH]c3c(N4CCc5ccccc5C4)ncnc3c2c1 | -51.5 | 20.6 µM [falling, single point] | 20.6 µM [falling, single point] |
| CCN(CC)CCN(C(=O)/C=C/c1cccs1)c1nc2ccc(Cl)cc2s1 | -0.295 | 4.11 µM [rising, single point] |  |
| Cc1ccc(C(C)C)c(OCCCN2CCc3ccccc3C2)c1 |  |  | 20.6 µM [falling, partial curve] |
| O=C(/C=C/c1ccc(Cl)cc1Cl)NC(=S)Nc1ccccn1 | 8.4 |  |  |
| CCCCC(=O)Nc1cccc(NC(=S)NC(=O)Cc2ccccc2)c1 | -8.93 |  | 18.4 µM [falling, partial curve] |
| O=S(=O)(Nc1nc(-c2sccc2Cl)cs1)c1cc(Cl)ccc1Cl | -17.8 |  | 6.51 µM [rising, single point] |
| CCOc1cccc2cc(C(=O)N3CCOCC3)c(=O)oc12 | 0.495 |  | 6.51 µM [falling, single point] |
| CCC(=O)NC1CCN(C(=S)NC)CC1 | -4.67 |  |  |
| COc1ccc(-c2cc(C(=O)Nc3c(C)n(C)n(-c4ccccc4)c3=O)c3ccccc3n2)cc1 | 2.17 |  |  |
| Cc1ccc(/C=N/n2cnc3sc(-c4ccccc4)cc3c2=O)o1 | 39.8 | 2.91 µM [rising, single point] |  |
| Cc1c(CN2CCN(CC(C)C)C(CCO)C2)[nH]c2ccc(Cl)cc12 (stereo not given) | -11.5 |  |  |
| COc1cc(C2=NOC(C(=O)Nc3c(C)n(C)n(-c4ccccc4)c3=O)C2)cc(OC)c1OC (stereo not given) | 0.272 |  |  |
| Cc1onc(-c2ccccc2)c1C(=O)Nc1nnc(CC(C)(C)C)s1 | 5.42 |  | 2.31 µM [falling, partial curve] |
| Cc1ccsc1/C=N/NC(=O)c1ccc2nc[nH]c2c1 | -5.97 |  | 32.6 µM [rising, single point] |
| Cc1ccc(S(=O)(=O)c2nc(Cc3ccccc3)oc2N2CCOCC2)cc1 | 14 | 0.0058 µM [rising, full curve, poor fit] |  |

Ten of the compounds above, as tab-separated lines.
SMILES	cell number change [%]	AC50 [1]	AC50 [2]
O=C(/C=C/c1ccc(Cl)cc1Cl)NC(=S)Nc1ccccn1	8.4		
CCCCC(=O)Nc1cccc(NC(=S)NC(=O)Cc2ccccc2)c1	-8.93		18.4 µM [falling, partial curve]
O=S(=O)(Nc1nc(-c2sccc2Cl)cs1)c1cc(Cl)ccc1Cl	-17.8		6.51 µM [rising, single point]
CCOc1cccc2cc(C(=O)N3CCOCC3)c(=O)oc12	0.495		6.51 µM [falling, single point]
CCC(=O)NC1CCN(C(=S)NC)CC1	-4.67		
COc1ccc(-c2cc(C(=O)Nc3c(C)n(C)n(-c4ccccc4)c3=O)c3ccccc3n2)cc1	2.17		
Cc1ccc(/C=N/n2cnc3sc(-c4ccccc4)cc3c2=O)o1	39.8	2.91 µM [rising, single point]	
Cc1c(CN2CCN(CC(C)C)C(CCO)C2)[nH]c2ccc(Cl)cc12 (stereo not given)	-11.5		
COc1cc(C2=NOC(C(=O)Nc3c(C)n(C)n(-c4ccccc4)c3=O)C2)cc(OC)c1OC (stereo not given)	0.272		
Cc1onc(-c2ccccc2)c1C(=O)Nc1nnc(CC(C)(C)C)s1	5.42		2.31 µM [falling, partial curve]

Next part

| SMILES | cell number change [%] | AC50 [1] | AC50 [2] |
| --- | --- | --- | --- |
| CC(=O)Nc1ccc(C(=O)N(C)c2ccccc2)cc1 | 4.42 | 0.651 µM [falling, full curve, poor fit] |  |
| CCCOc1ccc(CNC(=O)c2ccc3nc(N4CCOCC4)sc3c2)cc1 | 21.6 | 0.058 µM [rising, full curve, poor fit] |  |
| COc1ccc(C(=O)Nn2c(SCc3ccc([N+](=O)[O-])cc3)nc3ccccc3c2=O)cc1 | 72.7 | 20.6 µM [rising, single point] |  |
| COc1ccc(NC(=O)CC2C(=O)N(C)C(=S)N2CCc2ccccc2)cc1 (stereo not given) | 0.144 |  | 2.91 µM [rising, partial curve, poor fit] |
| C=CCn1c(COc2ccccc2)nnc1SCC(=O)Nc1ccc2c(c1)OCCO2 | -40.7 | 16.4 µM [falling, partial curve] | 16.4 µM [falling, partial curve] |
| CC(C)(C)c1cccc(Oc2nn[nH]n2)c1 | 27.6 |  |  |
| C[C@]12CC[C@@H]3c4ccc(O)cc4[C@@H](O)C[C@H]3[C@@H]1CC[C@@H]2O | 10.4 |  | 0.58 µM [falling, full curve, poor fit] |
| COCC(=O)N(C)c1nnc(-c2ccccn2)s1 |  |  | 0.00461 µM [rising, full curve, poor fit] |
| COc1cc(C(=O)/C=C/c2cccnc2)ccc1O | 24.4 |  |  |
| Cc1ccc(Cl)cc1N1CCN(C(=O)c2ccc(NS(=O)(=O)c3c(C)noc3C)cc2)CC1 | -32 | 32.6 µM [falling, partial curve, poor fit] | 0.00411 µM [falling, full curve, poor fit] |
| CCNS(=O)(=O)c1ccc2nc(NC(=O)/C=C/c3cc(OC)c(OC)c(OC)c3)sc2c1 | 11.1 |  | 0.00461 µM [falling, full curve, poor fit] |
| CC1CN(S(=O)(=O)c2cccc(C(=O)Nc3ccccc3N3CCCCC3)c2)CC(C)O1 (stereo not given) |  |  | 29.1 µM [falling, single point] |
| Cc1ccc(C(=O)N/N=C/c2ccc(N3CCOCC3)cc2)c(C)c1 | 44.4 | 16.4 µM [rising, single point] |  |
| CCOC(=O)C1=C(O)C(=O)NC(c2ccccc2)=C(OC2CCCCC2)C1 | -9.22 |  | 0.58 µM [falling, single point] |
| COc1ccc(-c2csc(NC(=O)c3cccc(S(=O)(=O)N4CCN(C)CC4)c3)n2)cc1 | -16.9 | 0.231 µM [falling, full curve] | 0.103 µM [falling, full curve, poor fit] |
| COc1ccccc1NC(=O)/C=C1\SCC(=O)N1C | 43.7 | 29.1 µM [rising, single point] |  |
| Cc1ccc(C(=O)NCCC(=O)Nc2ccccc2C)cc1 | -9.12 |  | 29.1 µM [falling, single point] |
| CCOc1ccc2nc(SCC(=O)NC3CCCc4ccccc43)sc2c1 (stereo not given) | 31 | 9.2 µM [rising, partial curve, poor fit] | 9.2 µM [rising, partial curve, poor fit] |
| c1ccc(CCNc2ncnc3scc(C4COc5ccccc5O4)c23)cc1 (stereo not given) |  |  | 29.1 µM [rising, single point] |
